Data from the ROBIN nucleic acid binder screens, doi:10.1002/anie.202211358.

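The test is a small-molecule microarray: each compound is printed twice on a reactive slide, and binding shows as fluorescence of the labelled oligonucleotide after washing. The data file lists only calls. An earlier report of the laboratory on the PreQ1, TPP and SAM-II riboswitches (doi:10.1038/s41467-019-09493-3) used 1 µM RNA for 2 h and required a mean Z-score above 3 (spot signal-to-noise against the whole library), a score well above that on a control array, and duplicate spots agreeing (coefficient of variation under 100); it then also set aside compounds that hit other targets, which this list keeps. The cut-offs behind this list may differ. These are primary screening calls, not affinities; a compound without a hit may have attached poorly or may still bind in solution.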
“hit” means called a hit, “no hit” means screened and not called a hit.
The compounds are a random part of those screened.

Targets, with sequences 5′ to 3′:
PreQ1: PreQ1 riboswitch RNA pseudoknot, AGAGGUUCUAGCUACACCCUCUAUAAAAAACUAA. From B. subtilis. About 24,000 compounds screened, about 170 hits.

structure	PreQ1
COc1ccc(F)c(CN2CCCC(O)(CNCc3ccsc3)C2=O)c1 (stereo not drawn)	no hit
Cc1nc2ccccn2c1-c1csc(Nc2ccc(Cl)cc2)n1	no hit
O=C(c1ccc(N2CCC3(CC2)OCCCC3O)nc1)N1CCCC1 (stereo not drawn)	no hit
CCn1nc(C(C)C)cc1C(=O)N1CCC(Cn2cc(CO)nn2)CC1	no hit
O=C(CSc1nnc(CSc2nc3ccccc3s2)n1-c1ccccc1)NCCCO	no hit
O=C(c1ccccc1N1CCOCC1)N1[C@H]2CCNC[C@@H]1CC2	no hit
Cc1oc(N)c(C#N)c1C	no hit
CC(=O)c1cccc(Nc2nc(-c3ccncc3)cs2)c1	no hit
COc1ccc(-c2cc3ccccc3n2CC(O)CN2CCCCC2)cc1 (stereo not drawn)	no hit
O=C1NC(Cc2ccccc2Cl)(C2CCNCC2)C(=O)N1Cc1cncs1 (stereo not drawn)	no hit
COc1cc(C2C(C#N)=C(N)Oc3[nH]nc(C(F)(F)F)c32)cc(OC)c1OC (stereo not drawn)	no hit
C=CCN1C(=O)C(C)(C)Nc2ccccc21	no hit
COc1cccc(-c2n[nH]cc2C(=O)N(CC=Cc2ccccc2)CCO)c1	no hit
CCC(=C(c1ccccc1)c1ccc(OCCN(C)C)cc1)c1ccccc1	no hit
CC(C)c1nccc(CN2CC[C@H](CO)[C@H](O)C2)n1	no hit
Cc1cc(C)n(C2CCN(C(=O)CCc3cc4n(n3)CCNC4)C2)n1 (stereo not drawn)	no hit
O=C1OCC(CO)N1Cc1cc(C2CCCCC2)no1 (stereo not drawn)	no hit
CCOC(=O)c1c(N)n(-c2cccc(C(F)(F)F)c2)c2nc3ccccc3nc12	no hit
O=C(O)[C@@]12CN(CCO)C[C@@H]1CN(Cc1ccc(F)cc1Cl)C2	no hit
NC(=O)c1ccc2c(c1SCCO)C(=O)c1ccccc1C2=O	no hit
COC(=O)CCCNc1cc(C)nc2nc(-c3ccc(C(C)(C)C)cc3)nn12	no hit
CCS(=O)(=O)N1CCc2cc(S(=O)(=O)NCCC(C)O)ccc2C1 (stereo not drawn)	no hit
CC(O)CN1CC2(CCC1=O)CCN(S(=O)(=O)N1CCCC1)CC2 (stereo not drawn)	no hit
CN(C)c1ccc(NC2CC(=O)N(c3ccc(O)cc3)C2=O)cc1 (stereo not drawn)	no hit
Nc1ccc(Cn2cnc(-c3nc(-c4ccc(F)cc4)no3)c2)cc1	no hit
c1ccc(-c2nc3c(c(NCc4ccccn4)n2)CCNC3)cc1	no hit
Cn1c(=O)n(C)c2cc(CNC(C)(C)CC(C)(C)C)ccc21	no hit
N#CC1=C(N)N(c2ccc(C(F)(F)F)cc2)C2=C(C(=O)OC2)C12C(=O)Nc1ccccc12 (stereo not drawn)	no hit
COc1nc2c(cc1C(=O)N1CCC(C(O)c3cccs3)CC1)CCC2 (stereo not drawn)	no hit
CCc1cc(-c2nc(-c3ccncc3)nn2CCO)ccn1	no hit
Nc1ccc(C2=CSC3=NCCN23)cc1	no hit
CCc1nc(C)c(CN2CC[C@@H](c3ccc4ccccc4c3)[C@H](O)C2)[nH]1	no hit
CCOc1ccc(C(O)Cc2nc3ccccc3n2C)cc1 (stereo not drawn)	no hit
Cc1cc(S(=O)(=O)[C@H]2CS(=O)(=O)C[C@@H]2NCCc2ccc(Cl)cc2)ccc1F	no hit
NC(=O)C1CCN(CCCNC2CC(=O)N(Cc3ccc(N4CCCC4=O)cc3)C2=O)CC1 (stereo not drawn)	no hit
c1ccc(COc2ccc(CNCc3cccnc3)cc2)cc1	no hit
CCOC(=O)C(=O)N1c2ccccc2C(Nc2ccccc2)CC1C (stereo not drawn)	no hit
CCN(CC)C(=O)[C@@H]1C[C@@H](N)CN1S(=O)(=O)c1cnn(CC)c1	no hit
CCCc1cc(NCCN2CCOCC2)n2nc3nc(C)cc(C)c3c2n1	no hit
CCCCOCC(O)Cn1c(Cc2ccccc2)nc2ccccc21 (stereo not drawn)	no hit
COCCn1c2nc(=O)n(-c3ccccc3)c(=O)c-2nc2ccccc21	no hit
Cn1c(C2=C(N)N(c3ccc(F)cc3)CC2=O)nc2ccccc21	no hit
COc1ccc(-c2nc3c([nH]2)CCN(c2nccc(N)n2)C3)cc1	no hit
Cc1cc2c3ccccc3ncn2n1	no hit
Cc1ccc(-c2cnc(NCc3cccc(Cl)c3)n2C)cc1	no hit
O=C(NCc1ccccn1)c1ccc(C2CCCNC2)cc1 (stereo not drawn)	no hit
CCCSc1ncc(-c2c(C#N)c(N)nc3c2CC(N)CC3)cn1 (stereo not drawn)	no hit
CCN1C(=O)C2(C(C#N)=C(N)N(c3ccc(F)c(Cl)c3)C3=C2C(=O)OC3)c2ccccc21 (stereo not drawn)	no hit
CC(C)N1CC(=O)C(c2nc(-c3ccc(Cl)cc3)cs2)=C1N	no hit
CCCCCCCCCSc1n[nH]c(N)n1	hit
Cc1cc(Sc2ccc(N)cc2)n2ncnc2n1	no hit
C=CCC1(Nc2ccccc2)CCCCC1	no hit
C=CCNc1ccccc1C(=O)NCC(c1cccnc1)N1CCCC1 (stereo not drawn)	no hit
CCc1ccc(S(=O)(=O)c2nnn(-c3ccc(C(C)C)cc3)c2N)cc1	no hit
CC(C)=CC[C@@H](O)C1=CC(=O)c2c(O)ccc(O)c2C1=O	no hit
C=CCC1(CO)CCCN(Cc2ccc(S(=O)(=O)NC)cc2)C1 (stereo not drawn)	no hit
COc1cccc([C@H]2C[C@@H](c3ccc(Cl)cc3)Nc3nc(N)nn32)c1	no hit
Cc1cccnc1NCCNC(=O)CSc1nnc(N)s1	no hit
CCCn1nc(C)c(Cn2cc(-c3ccc(CO)o3)nn2)c1C	no hit
Cc1cccc(-c2nn3c(NCCN4CCOCC4)cc(C)nc3c2C)c1	no hit
Oc1cc(C2CCCN(c3ncnc4c3CCNCC4)C2)ncn1 (stereo not drawn)	no hit
Nc1ncnc2c1ncn2C1C=C(CO)C(O)C1O (stereo not drawn)	no hit
NCC(c1ccc(Cl)cc1)C1CCCC1 (stereo not drawn)	no hit
CC(=O)c1ccc(Nc2ncnc3ccc(Br)cc23)cc1	no hit

7 of the entries, repeated:

{"structure": "CC(O)CN1CC2(CCC1=O)CCN(S(=O)(=O)N1CCCC1)CC2", "stereo": "stereo not drawn", "PreQ1": "no hit"}
{"structure": "Cn1c(=O)n(C)c2cc(CNC(C)(C)CC(C)(C)C)ccc21", "PreQ1": "no hit"}
{"structure": "Nc1ccc(Cn2cnc(-c3nc(-c4ccc(F)cc4)no3)c2)cc1", "PreQ1": "no hit"}
{"structure": "O=C(CSc1nnc(CSc2nc3ccccc3s2)n1-c1ccccc1)NCCCO", "PreQ1": "no hit"}
{"structure": "c1ccc(COc2ccc(CNCc3cccnc3)cc2)cc1", "PreQ1": "no hit"}
{"structure": "CCc1cc(-c2nc(-c3ccncc3)nn2CCO)ccn1", "PreQ1": "no hit"}
{"structure": "CC(C)N1CC(=O)C(c2nc(-c3ccc(Cl)cc3)cs2)=C1N", "PreQ1": "no hit"}